## Library screening results

The values are deposited in ChEMBL (CHEMBL3988442, “University of Dundee, Small-Polar-MMV Screening Library” (2021)).

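Viability assay of Plasmodium falciparum sporozoites; the read-out is not stated. The concentration is filed as 10 mM, unlikely as a test dose, so the dose is not known. Direction is inferred from retests: higher values go with lower viability. Strong results were mostly tested again. About 34,000 compounds were tested under these conditions; 0.84% (about 280) showed 50% or more at least once.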

The filed quantity is “Percent Effect” (%). The controls that fix the scale are not given in the record; negative values are as filed. The compounds are a random part of those screened.

O=C(N[C@@H]1CN(Cc2ccc3[nH]ccc3c2)C[C@H]1O)c1cscn1 gave -11.38%.
CC(NCC(=O)N(C)C1CC1)c1ccc(S(C)(=O)=O)c(F)c1 (centres unmarked) gave 7.171%.
COc1cc(OC)cc(C2CCN(CC(=O)NCC(F)(F)F)C2)c1 (centres unmarked) gave -4.343%.
Cc1nnc(N2CCC(CCN(C)C)CC2)c(C#N)c1C gave -0.8919%.
CC(C)c1nc(CN(C)C2CCN(Cc3nnc(C4CC4)o3)C2)no1 (centres unmarked) gave 0.5402%.
CNS(=O)(=O)c1cccc(C(C)NCc2ccncc2)c1 (centres unmarked) gave -2.305%.
COc1ccc(CN2CCCN(C(=O)C(C)n3ccnc3)CC2)cc1 (centres unmarked) gave 7.779%.
CS(=O)(=O)CCOCCNc1ccc2ccc(F)cc2n1 gave -9.371%.
CN[C@@H]1CCC[C@@H](Oc2ccccc2Oc2ccc(C)cc2)[C@@H]1O gave 14.14%.
CN1CC(Oc2ccc(Cl)cc2)=NC(SCC(=O)c2ccccc2)=N1 gave 7.182%.
CS(=O)(=O)c1cc(Cl)cnc1C1CCCN(C(=O)C2CCOCC2)C1 (centres unmarked) gave 8.546%.
c1cn(Cc2nnc(C3CCN(C4CCOCC4)CC3)n2C2CC2)cn1 gave -1.288%.
O=C(O)C(F)(F)F.O=C1CCCN1Cc1nnc2n1CCN(Cc1ccccn1)CC2 gave -0.08757%.
CCOC(=O)c1sc2ccsc2c1CNC(=O)CCOC gave -1.34%.
Cc1ncsc1C(=O)N1CCC(c2ncncc2-c2ccnc(N)c2)C1 (centres unmarked) gave 2.877%.
Cc1nc(C)n(C2CCCN(C(=O)Cc3n[nH]c4ccccc34)C2)n1 (centres unmarked) gave 11.28%.
CC(=O)NC1CCCN(C(=O)Nc2cnc3c(cnn3C(C)C)c2)C1 (centres unmarked) gave -3.926%.
CCc1nc2n(n1)CC(NCc1noc(-c3ccc(C)cc3)n1)CC2 (centres unmarked) gave 4.316%.
O=C(O)C(F)(F)F.[H][C@]12CCN(C(=O)NCc3ccccc3)C[C@@]1([H])OCCN(C)C2 gave 20.34%.
Clc1cnccc1N1CCC(OC2CCOCC2)CC1 gave -10.41%.
[H][C@@]12CN(Cc3ccc(C)s3)C[C@]1([H])C(=O)N(CC1CCN(C)CC1)C2 gave -5.133%.
O=C(O)C(F)(F)F.[H][C@@]12CCN(CCc3ccccc3)C[C@]1([H])[C@H](C(=O)N1CCCC1)CCO2 gave 11.37%.
NC(=O)N1Cc2nccn2CC(Cn2ncccc2=O)C1 (centres unmarked) gave 5.565%.
COc1cc(CNC(=O)NCc2c(C)cc(C)[nH]c2=O)ccc1C gave 12.04%.
Cc1cc(NC2CC3(CCN(Cc4ncccc4F)C3)C2)ncn1 (centres unmarked) gave 5.2%.
CC(C)C(=O)N1CCCC(c2cc(C(F)F)n3ncnc3n2)C1.Cl (centres unmarked) gave 2.251%.
[H][C@@]12CCN(C(=O)c3cscn3)[C@]1([H])CN(C(=O)C1CCOC1)C2 (some centres unmarked) gave 13.52%.
O=C(O)C(F)(F)F.O=C(O)C(F)(F)F.O=C(O)C(F)(F)F.O=C(O)C(F)(F)F.[H][C@@]12CCCO[C@]1([H])[C@H](N(C)Cc1cccnc1)CN2Cc1nccn1C gave -18.38%.
Cc1ccc(C(=O)NS(=O)(=O)c2cc(F)ccc2F)c(=O)[nH]1 gave 11.43%.
[H][C@@]12CCC(=O)N(c3ccccc3)[C@]1([H])CCN2C(=O)c1ccoc1 gave -15.8%.
COCCN(C)C[C@@H]1CN(C(=O)c2ccoc2)C[C@@H]1CO gave 7.412%.

Repeated from the top, 4 entries:

- O=C(N[C@@H]1CN(Cc2ccc3[nH]ccc3c2)C[C@H]1O)c1cscn1 | -11.38%
- CC(NCC(=O)N(C)C1CC1)c1ccc(S(C)(=O)=O)c(F)c1 (centres unmarked) | 7.171%
- COc1cc(OC)cc(C2CCN(CC(=O)NCC(F)(F)F)C2)c1 (centres unmarked) | -4.343%
- Cc1nnc(N2CCC(CCN(C)C)CC2)c(C#N)c1C | -0.8919%